Structures can show the parent of a compound that is named as a salt. About 130 (2.5%) of roughly 5,300 compounds showed an effect of 50% or more. The list shows a part of the results.
Each compound was assayed on M. mycetomatis strain mm55. Conditions: primary screen, metabolic activity vs growth control; 96 h, 2 µM; inhibitor.

Structure (SMILES) | % viability [%]
c1ccc(N2CCN(CCCOc3ccc4c(c3)OCO4)CC2)cc1 [ONC0001583, bp554] | 98.14
Oc1ccc(-c2nc(-c3ccncc3)c(-c3ccc(F)cc3)[nH]2)cc1 [ONC0000026, sb202190] | 54.44
CCn1cc(C(=O)O)c(=O)c2cc(F)c(N3CCNCC3)cc21 [ONC0000382, norfloxacin] | 90.58
C[C@]12CC[C@H](O)CC1=CC[C@@H]1[C@@H]2CC[C@]2(C)C(=O)CC[C@@H]12 [ONC0003994, prasterone] | 65.2
N[C@@H](C(=O)O)c1ccc(O)c(C(=O)O)c1 [ONC0001483, 3carboxy4hydroxyphenylglyciner] | 93.89
CC(C)CNc1nc(-c2cccc3ncccc23)cn2c(-c3ccc(C(=O)NC4CC4)cc3)cnc12 [ONC0001261, mpsbay2a] | 100.7
CC(C)C[C@H](NC(=O)CNC(=O)c1cc(Cl)ccc1Cl)B1OC(=O)CC(CC(=O)O)(C(=O)O)O1 (stereo partly drawn) [ONC0004630, ixazomib citrate mln9708] | 70.19
CCCC[C@]1(CC)CS(=O)(=O)c2cc(CNC(CC(=O)O)CC(=O)O)c(OC)cc2[C@@H](c2ccccc2)N1 [ONC0001047, iinerixibat] | 91.57
Nc1ncnc2c1c(-c1cccc(OCc3ccccc3)c1)cn2C1CC(CN2CCCC2)C1 (stereo in doubt) [ONC0000263, nvpadw742] | 57.9
CCOC(=O)C1=C(C)NC(C)=C(C(=O)OC)C1c1cccc([N+](=O)[O-])c1 (stereo not drawn) [ONC0002416, nitrendipine] | 95.63
Cc1nc2c(OCc3ccccc3)cccn2c1CC#N [ONC0002660, sch28080] | 71.4
C[C@@]12CC[C@@H]3[C@@](CC[C@H]4[C@@]3(C)CCC[C@@]4(C)C(=O)O)(CC1=O)C2 [ONC0002858, isosteviol] | 83.56
Cc1c[nH]c(-c2cnc(NCCNc3ccc(C#N)cn3)nc2-c2ccc(Cl)cc2Cl)n1 [ONC0004531, chir99021 ct99021 hcl] | 57.04
NS(=O)(=O)c1cc2c(cc1C(F)(F)F)NC(Cc1ccccc1)NS2(=O)=O (stereo not drawn) [ONC0003124, bendroflumethiazide] | 78.23
COc1cc(C[C@H]2C(=O)OC[C@@H]2Cc2ccc(OC)c(OC)c2)ccc1O [ONC0002530, arctigenin] | 94.19
CCOc1cc(N2CCC(O)CC2)ccc1Nc1ncc2c(n1)N(C)c1ccccc1C(=O)N2C [ONC0001782, xmd892] | 89.29
O=C(CN1C2=NCCN2c2ccccc21)c1ccc(-c2ccccc2)cc1 [ONC0002544, cct031374] | 68.21
CN(C)[C@@H]1CCc2[nH]c3ccc(NC(=O)c4ccc(F)cc4)cc3c2C1 [ONC0002678, ly344864] | 85.04
CNC(=O)c1ccccc1Sc1ccc2c(/C=C/c3ccccn3)n[nH]c2c1 [ONC0000408, axitinib] | 61.39
Cc1ccc(NC(=O)Nc2cc(C(F)(F)F)ccc2F)cc1Nc1ccc2c(c1)NC(=O)/C2=C\c1ccc[nH]1 [ONC0000024, gnf5837] | 83.28

An excerpt from above in order of molecular weight, descending.
Structure (SMILES) | % viability [%]
O=C(CN1C2=NCCN2c2ccccc21)c1ccc(-c2ccccc2)cc1 [ONC0002544, cct031374] | 68.21
Oc1ccc(-c2nc(-c3ccncc3)c(-c3ccc(F)cc3)[nH]2)cc1 [ONC0000026, sb202190] | 54.44
CCn1cc(C(=O)O)c(=O)c2cc(F)c(N3CCNCC3)cc21 [ONC0000382, norfloxacin] | 90.58

(next part)

Structure (SMILES) | % viability [%]
CC(C)(NS(=O)(=O)c1ccc(Oc2ccc(F)cc2)cc1)C(=O)NO [ONC0001662, cp471474] | 77.34
CC(CN1c2ccccc2Sc2ccccc21)N(C)C (stereo not drawn) [ONC0000501, promethazine hydrochloride] | 70.91
CC[C@@H](CO)NC(=O)[C@@H]1C=C2c3cccc4c3c(cn4C)C[C@H]2N(C)C1 [ONC0003158, methysergide] | 77.63
CNC(=O)c1ccc(N2C(=S)N(c3cnc(C#N)c(C(F)(F)F)c3)C(=O)C23CCC3)cc1F [ONC0005202, arn509] | 113
CC(C)[C@H](CO)Nc1nc(Nc2cc(N)cc(Cl)c2)c2ncn(C(C)C)c2n1 [ONC0000765, aminopurvalanola] | 80.13
O=C(c1ccc(OCCN2CCCCC2)cc1)c1c(-c2ccc(O)cc2)sc2cc(O)ccc12 [ONC0004031, raloxifene hydrochloride] | 81.38
O=C1c2ccccc2-c2n[nH]c3cccc1c23 [ONC0001670, pyrazolanthrone] | 81.21
Cc1cc(CCC[C@H](CC(=O)NO)C(=O)N[C@H](C(=O)N[C@H](C)c2ccccc2)C(C)(C)C)ccc1-c1ccccc1 [ONC0002525, uk356618] | 62.33
CCc1c(-c2ccccc2)c(-c2ccccc2)nn1-c1ccccc1-c1cccc(OCC(=O)O)c1 [ONC0001328, bms309403] | 103.8
CO[C@H]1CC[C@H](N2C(=O)CNc3ncc(-c4ccc(C(C)(C)O)nc4)nc32)CC1 [ONC0001106, cc223] | 54.41
Cc1ccc(Cl)cc1N(CC(=O)Nc1c(F)cccc1F)S(C)(=O)=O [ONC0004491, fph1 brd6125] | 61.11
COc1cccc(/C=N/C=N/c2cccc(OC)c2)c1 [ONC0002505, dmeob] | 75.27
COc1cc2c(cc1OC)-c1c/c(=N\c3c(C)cc(C)cc3C)n(C)c(=O)n1CC2 [ONC0003609, trequinsin] | 63.58
Cn1nnc(-c2ccc(-c3ccc(N4C[C@H](CO)OC4=O)cc3F)cn2)n1 [ONC0000988, tedizolid] | 70.21
CS(=O)(=O)OC[C@H](O)[C@@H](O)COS(C)(=O)=O [ONC0002110, treosulfan] | 75.47
Cc1cccc(Nc2ccncc2S(=O)(=O)NC(=O)NC(C)C)c1 [ONC0004269, torsemide] | 66.39
C[C@]12CC[C@H]3[C@@H](CCC4=CC(=O)CC[C@@]43C)[C@@H]1CC[C@@H]2C(=O)CO [ONC0002930, desoxycortone] | 75.34
CCNC(=O)[C@@H]1CCCN1C(=O)[C@H](CCCNC(=N)N)NC(=O)[C@H](CC(C)C)NC(=O)[C@@H](CC(C)C)NC(=O)[C@H](Cc1ccc(O)cc1)NC(=O)[C@H](CO)NC(=O)[C@H](Cc1c[nH]c2ccccc12)NC(=O)[C@H](Cc1c[nH]cn1)NC(=O)[C@@H]1CCC(=O)N1 [ONC0002145, leuprolide acetate] | 78.55
CCCCN1CCC(CNC(=O)c2c3n(c4ccccc24)CCCO3)CC1 [ONC0001237, piboserod] | 100.5
CC1(S(=O)(=O)O)CC(=O)c2ccccc2C1=O (stereo not drawn) [ONC0005528, menadionebisulfite] | 107.2

Look-ups from the list.
Under % viability [%], CCOC(=O)C1=C(C)NC(C)=C(C(=O)OC)C1c1cccc([N+](=O)[O-])c1 (stereo not drawn) [ONC0002416, nitrendipine] is listed with 95.63
Under % viability [%], CC(C)[C@H](CO)Nc1nc(Nc2cc(N)cc(Cl)c2)c2ncn(C(C)C)c2n1 [ONC0000765, aminopurvalanola] is listed with 80.13

(continued)

Structure (SMILES) | % viability [%]
C[C@H]1CC2C([C@@H](O)C[C@@]3(C)C2CC[C@]3(O)C(=O)COC(=O)CCC(=O)O)[C@@]2(C)C=CC(=O)C=C12 (stereo partly drawn) [ONC0003156, methylprednisolone sodium succinate] | 82.41
CC1(C)O[C@@H]2[C@@H](CO[C@@]3(COS(N)(=O)=O)OC(C)(C)O[C@@H]23)O1 [ONC0003896, topiramate] | 80.41
COc1cc(NS(=O)(=O)c2ccc(N)cc2)nc(OC)n1 [ONC0000634, sulfadimethoxine] | 96.85
CC[N+](CC)(CC(=O)Nc1c(C)cccc1C)Cc1ccccc1 [ONC0003966, denatonium benzoate] | 84.43
O=C1N=C2SCCN2C(=O)C1Cc1ccc(Cl)cc1 (stereo not drawn) [ONC0002976, nuclomedone] | 78.17
CNC(=O)c1cccc2cc(Oc3ccnc4cc(OCC5(N)CC5)c(OC)cc34)ccc12 [ONC0002191, lucitanib] | 93.84
CCOC(=O)[C@@H](N)Cc1ccc(O)c(O)c1 [ONC0003209, etilevodopa] | 91.62
O=C1Nc2ccc(I)cc2/C1=C/c1cc(Br)c(O)c(Br)c1 [ONC0001580, gw5074] | 85.3
NC(=O)c1ccc[n+]([C@@H]2O[C@H](COP(=O)(O)OP(=O)(O)OC[C@H]3O[C@@H](n4cnc5c(N)ncnc54)[C@H](O)[C@@H]3O)[C@@H](O)[C@H]2O)c1 [ONC0000400, nadide] | 73.87
COc1c(Nc2ccc(S(C)(=O)=O)nc2C)ncnc1OC1CCN(C(=O)OC(C)C)CC1 [ONC0001156, apd597] | 102.1
Cc1ccc(-c2ccc(C)cn2)nc1 [ONC0002143, abametapir] | 65.91
Clc1cccc(Nc2nnc(-c3ccccc3)c3ccccc23)c1 [ONC0000204, my5445] | 64.62
NC/C(=C/F)CCc1ccc(F)cc1 [ONC0001167, mofegiline hydrochloride] | 95.04
CC(C)Cn1cnc2c(N)nc3ccccc3c21 [ONC0004169, imiquimod hydrochloride] | 125.1
Oc1nc(-c2ccc(C(F)(F)F)cc2)nc2c1CSCC2 [ONC0001471, xav939] | 63.65
OCc1cncc(F)c1 [ONC0002627, 5fluoro3pyridylmethanol] | 74.24
CSCCC(N)C(=O)O (stereo not drawn) [ONC0005439, methionine] | 151
Cc1nc2ccc(NC(=O)Nc3ccnc4cccnc34)cc2o1 [ONC0001721, sb334867] | 85.15
CON(C)C(=O)N1N=C(c2cc(F)ccc2F)S[C@@]1(CCCN)c1ccccc1 [ONC0000968, filanesib] | 67.32
NC(=O)N1c2ccccc2CC(=O)c2ccccc21 [ONC0003954, oxcarbazepine] | 77.43

From article PMC12670160, “A drug-repurposing screen of FDA- and EMA-approved drugs identifies two NF-κB inhibitors active against eumycetoma” (Journal of Antimicrobial Chemotherapy, 2025)
